Experimental data published in PubChem BioAssay AID1487 (National Center for Advancing Translational Sciences (NCATS), 2009).
The list shows a part of the results. Further columns of the screen follow, without active or inactive calls. Most of these compounds were active or inconclusive in the main read-out, so they are no random draw. Potencies come from curve fits of mixed quality, noted in brackets.

Experiment: qHTS Assay for Modulators of Lamin A Splicing
Details: HeLa LMNA splicing GFP/RFP minigene ratio, 48 h
Summary of the method: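 S3 HeLa stable clones carrying a lamin A-EGFP splicing minigene plus DsRed2 were seeded at 600 cells/well in Opti-MEM with 2% FBS, pin-dosed and incubated 48 h at 37°C. Acumen cytometry (488 nm) gave the GFP/RFP total-intensity ratio.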

[1] = measured here: RFP viability control channel
[2] = measured here: GFP splicing reporter channel

SMILES | AC50 [1] | AC50 [2]
CN(C(=S)Nc1cccnc1)c1ccc(O)cc1 | 35.5 µM [rising, single point] | –
COc1ccc(-n2c(C)cc(/C=C3\C(=O)NN(c4ccccc4)C3=O)c2C)cc1 | 14.1 µM [rising, single point] | –
COc1ccc(N(C(=O)COc2ccc(C)cc2)S(=O)(=O)c2ccc(C)cc2)cc1 | 8.91 µM [rising, partial curve] | –
COc1ccc(C(=O)Nc2ccc(C3(C#N)CCCC3)cc2)cc1 | 0.501 µM [falling, full curve, poor fit] | 0.562 µM [falling, full curve, poor fit]
Cc1cccc(CSCc2ccc(C(=O)NCCc3ccccc3)o2)c1 | 0.112 µM [falling, full curve] | 0.1 µM [falling, full curve]
CCc1ccc(NC(=O)N(CCCN2CCOCC2)C(C)c2cc3cccc(OC)c3o2)cc1 (stereo not given) | 5.62 µM [rising, full curve] | –
Cn1c(N)c(C(=O)COC(=O)c2ccc(Cl)nc2)c(=O)n(C)c1=O | 7.94 µM [falling, partial curve] | 20 µM [falling, partial curve]
CSCc1ccc(C(=O)Nc2cc(C)cc(C)c2)cc1 | 35.5 µM [rising, single point] | –
COc1ccc(CNC(=O)c2cccnc2Sc2ccc(C)c(C)c2)cc1 | 0.0224 µM [falling, partial curve, poor fit] | 0.0126 µM [falling, full curve, poor fit]
CN(Cc1c(C(=O)N(C)Cc2ccccc2)nc2ccccn12)CC1Cc2ccccc2O1 (stereo not given) | 2.82 µM [rising, partial curve, poor fit] | 2.24 µM [rising, partial curve, poor fit]
CS(=O)(=O)n1nc(-c2ccc(Cl)cc2)nc1SCc1ccccc1 | 31.6 µM [rising, single point] | –
CCOc1cc(-c2ccc(OC(=O)c3ccc(C)cc3)c(OC)c2)cc(=O)c2c(C)oc(C)c12 | – | 0.282 µM [falling, full curve, poor fit]
COc1ccc(CC(=O)Nc2ccc(S(=O)(=O)NCC3CCCO3)cc2)cc1 (stereo not given) | 10 µM [rising, partial curve] | –
COc1ccc(NC(=O)Cn2ncc(Cl)c(Cl)c2=O)cc1S(=O)(=O)N1CCOCC1 | 35.5 µM [rising, single point] | –
CCCN(CCC)C(=O)CSc1nc2n[nH]c(C)c2c(=N)n1-c1ccc(OC)cc1 | 12.6 µM [rising, single point] | 11.2 µM [rising, single point]
Cc1cc(NC(=O)c2ccc(N(C)S(=O)(=O)c3ccccc3)cc2)no1 | 15.8 µM [rising, single point] | –
CCOc1cc(C(=O)Nc2ccc(-c3nc4ccccc4s3)cc2Cl)cc(OCC)c1OCC | – | 0.794 µM [falling, full curve, poor fit]
CCOc1ccc(NC(=O)CSc2nc3ccccc3c(=O)n2CCNC(C)=O)cc1 | 2 µM [falling, full curve, poor fit] | 1.41 µM [falling, full curve, poor fit]

Some of the entries above, set out differently:
SMILES,AC50 [1],AC50 [2]
Cc1cccc(CSCc2ccc(C(=O)NCCc3ccccc3)o2)c1,"0.112 µM [falling, full curve]","0.1 µM [falling, full curve]"
CCc1ccc(NC(=O)N(CCCN2CCOCC2)C(C)c2cc3cccc(OC)c3o2)cc1 (stereo not given),"5.62 µM [rising, full curve]",–

More results follow.

SMILES | AC50 [1] | AC50 [2]
COc1cccc(NS(=O)(=O)c2ccc3[nH]cc(C(=O)NCCC(C)C)c(=O)c3c2)c1 | 17.8 µM [falling, partial curve] | –
Cc1cc(C)c(-c2csc(NC(=O)c3n[nH]c(=O)c4ccccc34)n2)c(C)c1 | 17.8 µM [rising, partial curve] | –
Cc1ccc(CNC(=O)c2c(C)oc3nc(C)nc(N4CCOCC4)c23)cc1 | 0.00631 µM [rising, full curve, poor fit] | –
Cc1nn(C)c(C)c1N1C(=O)c2cccc3c(Br)ccc(c23)C1=O | 11.2 µM [rising, partial curve] | –
O=C(CN1C2=NCCCN2c2ccccc21)c1ccc([N+](=O)[O-])cc1 | – | 0.0224 µM [falling, full curve, poor fit]
COc1ccccc1N1C(=O)CC1(C#N)c1ccc(OCc2ccccc2)cc1 (stereo not given) | 20 µM [rising, partial curve] | 10 µM [rising, partial curve, poor fit]
CCCS(=O)(=O)N1CCC(C(=O)NCc2ccc(F)cc2)CC1 | 2.82 µM [falling, partial curve, poor fit] | –
CSc1cc(-c2ccc(Cl)cc2)c(C(=O)NN)s1 | – | 25.1 µM [falling, single point]
Nc1c(N2CCN(c3ccccc3)CC2)c2ccccc2oc1=O | 35.5 µM [rising, single point] | –
CCOC(=O)c1[nH]c2ccccc2c1NC(=O)Nc1ccc(OC)cc1 | 3.16 µM [rising, partial curve] | –
Cn1c(O)c(N=NC(=O)c2cc(-c3cccs3)nc3ccccc23)c2ccccc21 | 0.0794 µM [rising, full curve, poor fit] | –
Cc1cccc(NC(=O)c2ccc(N3CCOCC3)c([N+](=O)[O-])c2)n1 | – | 25.1 µM [falling, single point]
CC(O/N=C/c1ccc(OC(F)F)cc1)C(=O)Nc1cccc(S(=O)(=O)N2CCOCC2)c1 (stereo not given) | 35.5 µM [rising, single point] | –
COC(=O)c1c(NC(=S)NN2CCN(C)CC2)sc2c1CCC(C)C2 (stereo not given) | 35.5 µM [falling, single point] | 35.5 µM [falling, single point]
CCNc1ncc2nc(-c3cn(C)c4ccccc34)c(=O)n(Cc3cccc(OC)c3)c2n1 | – | 0.794 µM [falling, full curve]
CCc1nnc(NC(=O)CSc2nnc(C3CCCCC3)n2-c2ccccc2)s1 | – | 12.6 µM [rising, partial curve]
CC1(C)CC(=O)C(C=Nc2ccc(C(=O)c3ccccc3)cc2N=CC2=C(O)CC(C)(C)CC2=O)=C(O)C1 | 1.78 µM [falling, partial curve, poor fit] | 39.8 µM [falling, partial curve, poor fit]
